The results in this text go back to PubChem BioAssay AID1347426 (Functional Genomics Laboratory (NCATS/FGL), 2020).

About 1,400 (4.5%) of roughly 31,000 sequences were called active.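 Rule for the calls: active = median seed-adjusted z-score above 1 or below -1; inactive = the rest.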 The list shows a part of the results.

A short description of this test: Novel Modifiers of Survival Motor Neuron (SMN) Protein: Gene Identification via Genome-wide siRNA Screen.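 Note: luminescence tracks full-length SMN protein made from the SMN2 reporter.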 Conditions: HEK293T SMN2-luciferase reporter, siRNA knockdown, 72 h; actives lie on both sides. A digest of the protocol: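 siRNA screen, 10418 genes ×3 siRNAs; 1 pmol/well, lipid reverse transfection into HEK293T SMN2-luc reporter line. 72 h, 37 °C, 5% CO2; ONE-Glo readout. Data: neg-ctrl normalized, log10, MAD; hit = MAD >1.0 or < -1.0.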
For GAACCAGAUAUCUUGAAAATT against ZNF251, the median seed-adjusted z-score is inactive: -0.851.

As for CAAUAAGCUUUGCAAUCAATT against SFRS8, the median seed-adjusted z-score is inactive: -0.353.

For the sequence CCUGCGCAGUAACAAUGAATT against SLC9A4, the median seed-adjusted z-score is inactive: 0.693.

With GGAUUGAGCGCAUCAAGGUTT against GNG7, the median seed-adjusted z-score was inactive: -0.205.

Take GCACAAGCGAGAUCCUCUATT against SLC10A4: the median seed-adjusted z-score was inactive: 0.069.

As for CACGAGCUGCGCUACAGUATT against TSEN34, the median seed-adjusted z-score is inactive: 0.918.

In the case of GACAAGUCUUAAUCAACUATT against PGR, the median seed-adjusted z-score was inactive: -0.0249.

With CUUCAAUCCUCUAGACUUUTT against PTTG1, the median seed-adjusted z-score is inactive: -0.459.

Take GGUUGGUGGUUUUGGGCUATT against OXCT1: the median seed-adjusted z-score was inactive: 0.133.

CAUCGAGUCUGUACCUACATT against GPHB5: the median seed-adjusted z-score is inactive: -0.533.

CUGGUGCAGUCAAACCGGATT against HSF1: the median seed-adjusted z-score is inactive: 0.

As to AGUAUGUGCUGAUCCGAGUTT against PHPT1, the median seed-adjusted z-score was active: 1.27.

For the sequence GCCUGUUACAGAUGACAUATT against BRD8, the median seed-adjusted z-score is inactive: -0.133.

CCAUCGACCUUAAUACUUUTT against GALNT6: the median seed-adjusted z-score was inactive: -0.287.

GCAAGUGAAUAUGCGGAUATT against SNRPE: the median seed-adjusted z-score is active: -2.77.

As for CACCUCCAGUAAGACCUUATT against ZNF625, the median seed-adjusted z-score is inactive: -0.0711.

In the case of UGGUUUACAUGUUCCAAUATT against GAPDH, the median seed-adjusted z-score was inactive: 0.479.

In the case of GAGUCAUCAUGAGUGUCAATT against ACADS, the median seed-adjusted z-score is inactive: 0.121.

As to CCACGAACUUGAAUCAAUUTT against NEK11, the median seed-adjusted z-score was inactive: 0.181.

On to GGUGUUCGGAAAAUAGUAATT against DHX36, for which the median seed-adjusted z-score was inactive: 0.165.

With CCAUGUGAUUAUGUACUCATT against ELOVL4, the median seed-adjusted z-score was inactive: 0.166.

On to GGGUGAAACUAGAAUUCGATT against SPINK5, for which the median seed-adjusted z-score is inactive: 0.26.

As to CGUGUAUUUUCUAACUAUUTT against FHL5, the median seed-adjusted z-score was inactive: 0.0859.

For the sequence CAAUAAAUCGUGACAAUGGTT against PCDHGC3, the median seed-adjusted z-score is inactive: 0.

Turning to CCCUAGCAUUAAGAAACAATT against FOXR2, the median seed-adjusted z-score was inactive: 0.593.

Regarding CAUAGGAGAUUCAAUUAUATT against NAT1, the median seed-adjusted z-score is inactive: -0.0665.

GGAGUAUUUCGAGAAGCAUTT against RHOBTB2: the median seed-adjusted z-score was inactive: -0.139.

Regarding GCAGUUCGCUUGUAUCGUATT against OGT, the median seed-adjusted z-score was inactive: 0.411.

For the sequence CGUCAGCUGUUUGUCCCAUTT against FLAD1, the median seed-adjusted z-score is inactive: 0.367.

As to CCCUCCAUGGAAUAGAAUATT against FCER1A, the median seed-adjusted z-score was inactive: -0.0293.
